In patent US20150237838A1, “REGULATION OF INSECT POPULATIONS” (CALIFORNIA INSTITUTE OF TECHNOLOGY, priority 2014, published 2015):
For at least one compound, name, drawing or mass did not settle the structure.

System: transgenic flies expressing the neo gene
Test: Antibiotic diet fed to transgenic flies expressing neo gene
Format: in vivo, Drosophila
Conditions: diet with increasing concentrations of G418; neo under Opie2 promoter

`CN[C@@H]1[C@@H](O)[C@@H](O[C@@H]2[C@@H](O)[C@H](O[C@H]3O[C@H]([C@@H](C)O)[C@@H](O)[C@H](O)[C@H]3N)[C@@H](N)C[C@H]2N)OC[C@]1(C)O` [G418] was tested, and the “toxicity of antibiotic in resistance-gene flies” value was “negate the toxicity”.
